Reference: the supplement of paper PMC10849652
This is one part of the list.

The chains behind the UniProt entries cited, without tags or fusion partners. Where a name states a change or a piece, a line headed by the entry shows the natural chain unless it says otherwise.
UniProt Q9Y5A7: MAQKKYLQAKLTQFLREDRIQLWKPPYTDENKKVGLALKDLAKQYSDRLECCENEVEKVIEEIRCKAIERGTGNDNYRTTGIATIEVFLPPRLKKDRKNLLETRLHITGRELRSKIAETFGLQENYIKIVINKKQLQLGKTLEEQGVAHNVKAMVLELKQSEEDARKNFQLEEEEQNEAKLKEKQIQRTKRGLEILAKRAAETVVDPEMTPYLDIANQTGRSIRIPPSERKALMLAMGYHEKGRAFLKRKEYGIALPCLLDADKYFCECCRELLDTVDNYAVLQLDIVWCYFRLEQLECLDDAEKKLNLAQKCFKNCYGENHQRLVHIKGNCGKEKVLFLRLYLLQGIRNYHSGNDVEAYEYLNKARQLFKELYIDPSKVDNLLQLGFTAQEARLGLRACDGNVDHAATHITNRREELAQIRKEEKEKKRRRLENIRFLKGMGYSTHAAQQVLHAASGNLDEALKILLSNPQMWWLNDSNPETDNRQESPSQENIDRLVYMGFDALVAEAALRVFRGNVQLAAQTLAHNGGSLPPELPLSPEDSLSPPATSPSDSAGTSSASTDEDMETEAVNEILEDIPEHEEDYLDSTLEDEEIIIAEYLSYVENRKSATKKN
UniProt Q92686, whole entry, looked up: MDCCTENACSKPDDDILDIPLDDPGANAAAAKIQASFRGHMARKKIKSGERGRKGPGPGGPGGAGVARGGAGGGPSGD
UniProt Q8WTW4: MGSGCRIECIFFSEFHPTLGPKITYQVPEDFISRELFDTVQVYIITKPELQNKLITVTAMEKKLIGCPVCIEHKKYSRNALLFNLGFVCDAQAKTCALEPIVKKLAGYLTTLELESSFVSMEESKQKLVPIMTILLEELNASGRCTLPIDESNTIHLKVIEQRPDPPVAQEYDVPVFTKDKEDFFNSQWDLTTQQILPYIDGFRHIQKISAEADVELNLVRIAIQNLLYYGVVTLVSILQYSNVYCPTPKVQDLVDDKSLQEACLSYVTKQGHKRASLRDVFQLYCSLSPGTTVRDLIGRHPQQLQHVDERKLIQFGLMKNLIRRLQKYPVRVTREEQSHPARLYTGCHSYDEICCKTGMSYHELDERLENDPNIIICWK
UniProt P29474: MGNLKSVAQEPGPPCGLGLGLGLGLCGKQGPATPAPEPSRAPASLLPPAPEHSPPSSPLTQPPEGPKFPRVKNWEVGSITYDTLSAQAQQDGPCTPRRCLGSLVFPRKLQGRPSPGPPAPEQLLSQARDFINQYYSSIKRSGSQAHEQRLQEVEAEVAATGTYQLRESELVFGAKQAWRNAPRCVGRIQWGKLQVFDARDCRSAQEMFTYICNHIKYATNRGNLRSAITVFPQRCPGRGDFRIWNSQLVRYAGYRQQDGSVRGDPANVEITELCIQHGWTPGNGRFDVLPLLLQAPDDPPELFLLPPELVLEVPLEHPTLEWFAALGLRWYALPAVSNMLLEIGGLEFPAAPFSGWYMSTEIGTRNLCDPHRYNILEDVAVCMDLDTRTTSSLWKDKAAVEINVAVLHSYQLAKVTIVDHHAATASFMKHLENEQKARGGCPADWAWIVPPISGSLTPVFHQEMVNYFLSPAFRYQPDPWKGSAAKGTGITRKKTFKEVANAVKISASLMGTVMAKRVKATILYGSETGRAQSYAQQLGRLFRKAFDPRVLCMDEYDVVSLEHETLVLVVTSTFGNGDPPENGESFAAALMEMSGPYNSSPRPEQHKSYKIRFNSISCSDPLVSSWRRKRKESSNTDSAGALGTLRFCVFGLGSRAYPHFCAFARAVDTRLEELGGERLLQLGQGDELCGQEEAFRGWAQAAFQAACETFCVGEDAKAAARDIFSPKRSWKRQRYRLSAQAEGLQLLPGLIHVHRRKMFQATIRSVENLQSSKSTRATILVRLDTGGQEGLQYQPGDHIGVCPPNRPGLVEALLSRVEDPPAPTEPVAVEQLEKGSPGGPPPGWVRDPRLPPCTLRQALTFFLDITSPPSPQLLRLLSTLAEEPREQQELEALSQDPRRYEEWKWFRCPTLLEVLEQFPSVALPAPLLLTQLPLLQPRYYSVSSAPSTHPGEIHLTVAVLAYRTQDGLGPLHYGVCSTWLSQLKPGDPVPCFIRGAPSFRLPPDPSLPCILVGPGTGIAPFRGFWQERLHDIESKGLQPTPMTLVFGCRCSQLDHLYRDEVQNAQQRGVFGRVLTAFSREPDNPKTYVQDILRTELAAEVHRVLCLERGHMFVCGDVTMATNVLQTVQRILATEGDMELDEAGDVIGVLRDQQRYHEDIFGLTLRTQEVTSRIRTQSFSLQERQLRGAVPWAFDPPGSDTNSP
UniProt Q9UHK0: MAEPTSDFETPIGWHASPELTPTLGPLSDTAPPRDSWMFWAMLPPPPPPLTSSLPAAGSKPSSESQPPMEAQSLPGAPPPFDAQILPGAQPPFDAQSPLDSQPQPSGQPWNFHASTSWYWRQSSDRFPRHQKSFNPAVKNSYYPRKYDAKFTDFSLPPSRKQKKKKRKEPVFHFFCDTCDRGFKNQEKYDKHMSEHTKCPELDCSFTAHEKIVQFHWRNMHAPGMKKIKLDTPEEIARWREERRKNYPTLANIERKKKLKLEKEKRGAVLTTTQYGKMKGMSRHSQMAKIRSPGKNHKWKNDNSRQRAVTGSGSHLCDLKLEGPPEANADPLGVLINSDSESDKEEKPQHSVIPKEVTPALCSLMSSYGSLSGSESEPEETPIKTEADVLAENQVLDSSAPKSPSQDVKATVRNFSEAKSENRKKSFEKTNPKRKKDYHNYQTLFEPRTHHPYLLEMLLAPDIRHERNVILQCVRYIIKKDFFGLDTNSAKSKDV
UniProt Q9NWW6: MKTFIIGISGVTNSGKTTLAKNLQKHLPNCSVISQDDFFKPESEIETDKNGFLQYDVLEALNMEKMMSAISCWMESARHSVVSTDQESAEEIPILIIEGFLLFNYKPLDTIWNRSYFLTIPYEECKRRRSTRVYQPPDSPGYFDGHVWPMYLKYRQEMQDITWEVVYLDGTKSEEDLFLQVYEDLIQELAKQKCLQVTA
UniProt Q12980: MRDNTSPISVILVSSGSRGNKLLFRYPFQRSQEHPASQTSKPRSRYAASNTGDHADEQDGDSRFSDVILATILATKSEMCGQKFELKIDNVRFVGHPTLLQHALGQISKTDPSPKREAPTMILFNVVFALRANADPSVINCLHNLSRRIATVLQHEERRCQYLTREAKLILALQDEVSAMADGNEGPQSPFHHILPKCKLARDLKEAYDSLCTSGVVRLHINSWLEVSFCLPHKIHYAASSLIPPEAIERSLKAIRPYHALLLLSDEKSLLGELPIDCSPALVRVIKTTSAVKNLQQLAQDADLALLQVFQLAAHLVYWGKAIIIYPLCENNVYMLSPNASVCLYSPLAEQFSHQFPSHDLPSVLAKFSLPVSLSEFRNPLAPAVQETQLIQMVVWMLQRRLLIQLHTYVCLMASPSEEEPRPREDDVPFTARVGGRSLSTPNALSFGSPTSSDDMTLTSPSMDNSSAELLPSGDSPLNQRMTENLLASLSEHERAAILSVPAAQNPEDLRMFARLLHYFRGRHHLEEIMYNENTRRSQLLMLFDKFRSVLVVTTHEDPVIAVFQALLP
UniProt O00746: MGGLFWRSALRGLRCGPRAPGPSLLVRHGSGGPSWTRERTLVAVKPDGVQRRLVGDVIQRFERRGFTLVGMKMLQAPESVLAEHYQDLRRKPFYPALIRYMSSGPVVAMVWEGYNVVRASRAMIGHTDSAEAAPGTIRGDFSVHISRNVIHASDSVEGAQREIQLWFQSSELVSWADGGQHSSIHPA
UniProt P48645: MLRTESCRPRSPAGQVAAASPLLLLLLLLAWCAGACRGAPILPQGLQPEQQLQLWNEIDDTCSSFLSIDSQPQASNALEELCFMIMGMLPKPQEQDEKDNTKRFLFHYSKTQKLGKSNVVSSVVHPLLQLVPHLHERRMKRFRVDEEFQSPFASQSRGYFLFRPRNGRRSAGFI
UniProt P04629: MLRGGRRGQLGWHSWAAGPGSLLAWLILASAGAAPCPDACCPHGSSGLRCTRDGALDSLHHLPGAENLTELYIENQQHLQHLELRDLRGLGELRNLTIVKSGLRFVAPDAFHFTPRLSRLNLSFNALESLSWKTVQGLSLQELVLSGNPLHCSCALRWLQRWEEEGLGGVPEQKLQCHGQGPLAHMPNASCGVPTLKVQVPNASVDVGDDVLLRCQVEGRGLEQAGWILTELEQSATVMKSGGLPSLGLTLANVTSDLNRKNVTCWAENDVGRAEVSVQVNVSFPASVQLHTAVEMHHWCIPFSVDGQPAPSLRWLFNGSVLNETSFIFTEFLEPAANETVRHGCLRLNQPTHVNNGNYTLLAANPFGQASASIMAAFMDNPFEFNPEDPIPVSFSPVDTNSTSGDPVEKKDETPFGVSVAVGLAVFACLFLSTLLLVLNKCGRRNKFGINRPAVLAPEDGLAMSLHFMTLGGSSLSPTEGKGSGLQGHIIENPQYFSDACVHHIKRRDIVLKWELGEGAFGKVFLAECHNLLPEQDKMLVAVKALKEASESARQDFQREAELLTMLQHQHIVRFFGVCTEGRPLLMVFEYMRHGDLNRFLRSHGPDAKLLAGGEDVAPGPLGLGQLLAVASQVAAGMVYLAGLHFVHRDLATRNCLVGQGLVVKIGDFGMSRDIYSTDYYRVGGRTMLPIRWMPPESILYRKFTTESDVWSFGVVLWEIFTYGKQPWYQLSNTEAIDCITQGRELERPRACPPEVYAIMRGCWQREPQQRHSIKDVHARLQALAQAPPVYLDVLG
UniProt P04150: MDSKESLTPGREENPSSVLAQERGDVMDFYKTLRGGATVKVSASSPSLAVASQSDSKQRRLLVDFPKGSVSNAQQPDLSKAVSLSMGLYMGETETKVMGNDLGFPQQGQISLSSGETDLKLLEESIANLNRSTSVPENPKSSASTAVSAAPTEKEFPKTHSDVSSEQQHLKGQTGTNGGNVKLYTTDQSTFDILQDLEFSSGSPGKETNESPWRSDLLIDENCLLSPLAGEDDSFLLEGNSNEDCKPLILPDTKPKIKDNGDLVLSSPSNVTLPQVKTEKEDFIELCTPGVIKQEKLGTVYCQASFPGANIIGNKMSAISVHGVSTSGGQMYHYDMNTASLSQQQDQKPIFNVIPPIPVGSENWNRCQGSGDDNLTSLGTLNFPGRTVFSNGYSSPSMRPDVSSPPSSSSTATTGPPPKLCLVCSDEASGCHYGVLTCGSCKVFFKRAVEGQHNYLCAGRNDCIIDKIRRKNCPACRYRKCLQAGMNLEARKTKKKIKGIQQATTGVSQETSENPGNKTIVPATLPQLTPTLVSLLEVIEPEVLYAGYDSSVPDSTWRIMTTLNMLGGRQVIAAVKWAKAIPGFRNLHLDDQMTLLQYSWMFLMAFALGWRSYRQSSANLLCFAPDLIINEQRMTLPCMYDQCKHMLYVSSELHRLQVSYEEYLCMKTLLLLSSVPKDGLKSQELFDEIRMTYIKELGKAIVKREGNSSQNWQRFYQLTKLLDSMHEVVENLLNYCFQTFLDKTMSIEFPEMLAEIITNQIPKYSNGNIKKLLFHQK
UniProt P20393: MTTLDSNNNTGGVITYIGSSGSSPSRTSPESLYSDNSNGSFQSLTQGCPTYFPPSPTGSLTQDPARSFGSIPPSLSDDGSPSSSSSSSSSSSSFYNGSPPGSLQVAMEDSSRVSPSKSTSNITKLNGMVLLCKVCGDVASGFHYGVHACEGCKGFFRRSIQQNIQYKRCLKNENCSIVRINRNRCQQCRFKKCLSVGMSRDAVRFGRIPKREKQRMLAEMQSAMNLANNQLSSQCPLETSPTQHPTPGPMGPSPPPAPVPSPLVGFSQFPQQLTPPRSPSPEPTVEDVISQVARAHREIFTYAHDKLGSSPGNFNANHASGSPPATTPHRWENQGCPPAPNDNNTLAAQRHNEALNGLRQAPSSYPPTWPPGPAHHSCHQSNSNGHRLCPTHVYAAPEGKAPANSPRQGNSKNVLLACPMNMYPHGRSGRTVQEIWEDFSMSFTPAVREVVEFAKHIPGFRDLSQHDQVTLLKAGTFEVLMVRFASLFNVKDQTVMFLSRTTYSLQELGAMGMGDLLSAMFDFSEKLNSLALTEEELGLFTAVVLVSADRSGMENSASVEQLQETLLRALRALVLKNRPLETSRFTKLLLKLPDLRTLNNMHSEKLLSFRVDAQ

Columns and labels:
Test in all cases: log2 fold change, soluble protein after heating vs DMSO (PISA); higher = thermal stabilisation; K562 lysate, 10 uM; active = over 0.2 and 3.5 SD of the protein, either way, in both replicates (recomputed)
crizotinib = compound: C[C@@H](Oc1cc(-c2cnn(C3CCNCC3)c2)cnc1N)c1c(Cl)ccc(F)c1Cl [crizotinib]
Procedure, shortened: (§1)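 To prepare the extract, K562 pellets were dounce-homogenised in PBS pH 7.4 with 1 mM MgCl2, giving crude material at 1 mg/mL protein. This was treated with 10 μM compound for 30 min, then heated in aliquots for 3 min over 48°C-58°C before pooling and addition of NP-40 to 0.5% at 4°C. Centrifugation at 21,000xg for 90 min left soluble protein in the supernatant, which TMTpro 16plex LC-MS/MS quantified with equalised channel sums. Results are log-two fold changes in thermal stability compared with solvent controls, from duplicates.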

doramapimod = compound: Cc1ccc(-n2nc(C(C)(C)C)cc2NC(=O)Nc2ccc(OCCN3CCOCC3)c3ccccc23)cc1 [doramapimod]
Procedure, shortened: as §1

quisinostat = compound: Cn1cc(CNCC2CCN(c3ncc(C(=O)NO)cn3)CC2)c2ccccc21 [quisinostat]
Procedure, shortened: as §1

[1] = compound: NC(=O)Nc1cc(-c2cccc(F)c2)sc1C(=O)N[C@H]1CCCNC1
Procedure, shortened: as §1

pictilisib = compound: CS(=O)(=O)N1CCN(Cc2cc3nc(-c4cccc5[nH]ncc45)nc(N4CCOCC4)c3s2)CC1 [pictilisib]
Procedure, shortened: as §1

duvelisib = compound: C[C@H](Nc1ncnc2nc[nH]c12)c1cc2cccc(Cl)c2c(=O)n1-c1ccccc1 [duvelisib]
Procedure, shortened: as §1

bafetinib = compound: Cc1ccc(NC(=O)c2ccc(CN3CC[C@H](N(C)C)C3)c(C(F)(F)F)c2)cc1Nc1nccc(-c2cncnc2)n1 [bafetinib]
Procedure, shortened: as §1

nilotinib = compound: Cc1cn(-c2cc(NC(=O)c3ccc(C)c(Nc4nccc(-c5cccnc5)n4)c3)cc(C(F)(F)F)c2)cn1 [nilotinib]
Procedure, shortened: as §1

[2] = compound: Cc1nc(Nc2n[nH]c3c2CN(C(=O)N[C@H](CN(C)C)c2ccccc2)C3(C)C)c2sccc2n1
Procedure, shortened: as §1

dasatinib = compound: Cc1nc(Nc2ncc(C(=O)Nc3c(C)cccc3Cl)s2)cc(N2CCN(CCO)CC2)n1 [dasatinib]
Procedure, shortened: as §1

[3] = compound: Cc1ncc(-c2ccnc(Nc3ccc(S(C)(=O)=O)cc3)n2)n1C(C)C
Procedure, shortened: as §1

[4] = compound: Cn1cc(-c2ccc3c(c2)CCN3C(=O)Cc2cccc(C(F)(F)F)c2)c2c(N)ncnc21
Procedure, shortened: as §1

tipifarnib = compound: Cn1cncc1[C@@](N)(c1ccc(Cl)cc1)c1ccc2c(c1)c(-c1cccc(Cl)c1)cc(=O)n2C [tipifarnib]
Procedure, shortened: as §1

lapatinib = compound: CS(=O)(=O)CCNCc1ccc(-c2ccc3ncnc(Nc4ccc(OCc5cccc(F)c5)c(Cl)c4)c3c2)o1 [lapatinib]
Procedure, shortened: as §1

[5] = compound: C[C@H](C1=CC=C(C=C1)C(=O)NC2=C3C=CNC3=NC=C2)N
Procedure, shortened: as §1

gandotinib = compound: Cc1cc(Nc2cc(CN3CCOCC3)c3nc(C)c(Cc4ccc(Cl)cc4F)n3n2)n[nH]1 [gandotinib]
Procedure, shortened: as §1

tozasertib = compound: Cc1cc(Nc2cc(N3CCN(C)CC3)nc(Sc3ccc(NC(=O)C4CC4)cc3)n2)n[nH]1 [tozasertib]
Procedure, shortened: as §1

[6] = compound: Cc1cccc(CC(=O)N2CCc3c2ccc(-c2cn(C)c4ncnc(N)c24)c3F)n1
Procedure, shortened: as §1

[7] = compound: NC(=O)c1cnc(N[C@@H]2CCCC[C@@H]2N)nc1Nc1cccc(-n2nccn2)c1
Procedure, shortened: as §1

[8] = compound: NC1(c2ccc(-c3nc4ccn5c(=O)[nH]nc5c4cc3-c3ccccc3)cc2)CCC1
Procedure, shortened: as §1

Measured: log2 fold change

NUB1 isoform 2 (UniProt Q9Y5A7)
inactive: crizotinib 0.015 | doramapimod 0.063 | quisinostat 0.205 | [1] -0.019

NRGN (UniProt Q92686)
inactive: pictilisib 0.131 | crizotinib -0.099 | duvelisib -0.073 | doramapimod 0.02 | bafetinib -0.088 | nilotinib 0.032 | [2] -0.003 | dasatinib 0.117 | [3] 0.094 | [4] 0.037 | quisinostat -0.051 | tipifarnib 0.013 | [1] 0.092

NPRL2 (UniProt Q8WTW4)
inactive: crizotinib 0.132 | doramapimod 0.036 | nilotinib -0.142 | [2] -0.017 | [3] 0.179 | quisinostat -0.046 | tipifarnib -0.049 | [1] 0.071

NSD1 (UniProt Q96L73)
inactive: lapatinib -0.027 | [5] -0.02 | duvelisib 0.143 | gandotinib 0.053 | tozasertib 0.04 | [6] -0.002 | nilotinib 0.001 | [2] -0.063 | dasatinib -0.01 | [3] 0.006 | [4] 0.123 | tipifarnib -0.052 | [7] -0.004 | [8] -0.096

NOS3 (UniProt P29474)
inactive: nilotinib -0.304 | [2] 0.032 | [3] -0.016 | tipifarnib 0.24 | [8] -0.06

NUFIP1 (UniProt Q9UHK0)
inactive: pictilisib 0.022 | crizotinib -0.162 | [5] -0.027 | duvelisib 0.064 | gandotinib 0 | tozasertib -0.119 | doramapimod -0.172 | bafetinib -0.104 | [6] 0.071 | nilotinib -0.086 | [2] 0.056 | dasatinib -0.025 | [3] 0.076 | [4] -0.042 | quisinostat -0.102 | tipifarnib -0.069 | [1] 0.097

NMRK1 (UniProt Q9NWW6)
inactive: crizotinib -0.049 | doramapimod 0.055 | quisinostat -0.087 | [1] -0.083

NPRL3 (UniProt Q12980)
inactive: crizotinib -0.137 | [5] -0.192 | gandotinib 0.176 | doramapimod -0.011 | [6] 0.276 | nilotinib 0.031 | [2] -0.01 | [3] 0.24 | quisinostat -0.269 | tipifarnib -0.054 | [1] 0.061 | [8] 0.081

NME3 (UniProt H3BPR2)
inactive: lapatinib -0.078 | [7] 0.007

NME4 (UniProt O00746)
inactive: crizotinib -0.02 | tozasertib -0.056 | doramapimod 0.035 | quisinostat -0.001 | [1] 0.074 | [8] -0.165

NT5C2 (UniProt Q5JUV3)
inactive: crizotinib -0.179 | duvelisib 0.027 | tozasertib -0.009 | doramapimod -0.021 | dasatinib -0.092 | [4] -0.096 | quisinostat -0.032 | [1] 0.034

NMU (UniProt P48645)
inactive: crizotinib -0.079 | [5] -0.031 | gandotinib -0.169 | tozasertib 0.004 | doramapimod -0.015 | [6] 0.054 | quisinostat 0.054 | [1] 0 | [8] -0.027

NTRK1 (UniProt P04629)
inactive: crizotinib 0.037 | [5] -0.172 | duvelisib 0.106 | gandotinib 0.484 | tozasertib 0.074 | doramapimod 0.09 | [6] 0.272 | dasatinib -0.002 | [4] 0.138 | quisinostat -0.114 | [1] 0.315

NSD3 (UniProt Q9BZ95)
inactive: pictilisib -0.12 | crizotinib -0.081 | [5] -0.045 | duvelisib 0.074 | gandotinib 0.235 | tozasertib 0.104 | doramapimod 0.15 | bafetinib -0.023 | [6] 0.035 | nilotinib 0.013 | [2] -0.035 | dasatinib -0.233 | [3] -0.016 | [4] 0.153 | quisinostat -0.091 | tipifarnib -0.144 | [1] 0.039

NR3C1 isoform 3 (UniProt P04150)
inactive: pictilisib -0.26 | crizotinib 0.012 | [5] 0.057 | duvelisib 0.046 | gandotinib -0.091 | tozasertib 0.012 | doramapimod -0.005 | bafetinib -0.027 | [6] 0.073 | nilotinib -0.021 | [2] -0.069 | dasatinib -0.042 | [3] 0.044 | [4] -0.014 | quisinostat -0.032 | tipifarnib -0.038 | [1] 0.035 | [7] 0.03 | [8] -0.021

NTMT1 (UniProt S4R338)
inactive: lapatinib 0.082 | [7] -0.027

Taken from the results shown (2 entries):
NSD3 (UniProt Q9BZ95)
inactive: pictilisib -0.12 | crizotinib -0.081 | [5] -0.045 | duvelisib 0.074 | gandotinib 0.235 | tozasertib 0.104 | doramapimod 0.15 | bafetinib -0.023 | [6] 0.035 | nilotinib 0.013 | [2] -0.035 | dasatinib -0.233 | [3] -0.016 | [4] 0.153 | quisinostat -0.091 | tipifarnib -0.144 | [1] 0.039

NR3C1 isoform 3 (UniProt P04150)
inactive: pictilisib -0.26 | crizotinib 0.012 | [5] 0.057 | duvelisib 0.046 | gandotinib -0.091 | tozasertib 0.012 | doramapimod -0.005 | bafetinib -0.027 | [6] 0.073 | nilotinib -0.021 | [2] -0.069 | dasatinib -0.042 | [3] 0.044 | [4] -0.014 | quisinostat -0.032 | tipifarnib -0.038 | [1] 0.035 | [7] 0.03 | [8] -0.021

The results go on:

NR1D1 (UniProt P20393)
inactive: tozasertib -0.092
